From patent US10010520B2, “Combined application of isothiocyanate compound and anti-cancer medicine” (JC (WUXI) COMPANY, INC., priority 2013, dated 2018)

Key:
Assay type in all cases: cell-based
[1] = test system: human leukemia HL-60 cells; experiment: CellTiter-Glo cell viability, drugs alone or in combination, HL-60 cells; details: HL-60, 72 h, read-out: (Bs)50, IC50 of drug B when used alone
Procedure: isothiocyanates or derivatives thereof and DNA-effecting or influencing anticancer drugs, kinase-inhibiting anticancer drugs or hormonal anticancer drugs for endocrine therapy were administered separately or in combination to cancer cells. Cells were seeded into 384-well plates, and cultured for 24 hours in a CO2 incubator. Drugs were dissolved in DMSO and diluted to 9 concentration-gradients in 96 well plates, and then added to corresponding cells in 384-well plates, in which the concentrations of DMSO in 384 well plates were less than 1%. Triplicate wells were set for each concentration. After administration, the cells were cultured in the CO2 incubator for another 72 hrs, and afterwards, cell viability was tested by using CellTiter-Glo® reagent and luminescence detector. And IC50 values of each administration group were calculated.
CI value was calculated by the following formula: CI=(Am)50/(As)50+(Bm)50/(Bs)50,
Triplicate wells were set for each co-administration cell well.
(§1) After administration, cells were cultured in the CO2 incubator for another 72 hrs, and afterwards, cell viability was tested by using CellTiter-Glo® reagent and luminescence detector. Curves were plotted according to concentrations or logarithm concentrations of drug A vs cell inhibition rate in the corresponding cell well, and IC50, i.e. (Am)50 was calculated. […]

LNCaP cells = experiment: CellTiter-Glo cell viability, drugs alone or in combination, LNCaP cells; details: Homo sapiens, 72 h, read-out: (Bs)50, IC50 of drug B when used alone
Procedure: (§2) Cell culture: Androgen-dependent human prostate cancer cells LNCaP, from Shanghai Medicilon Ltd., were placed in a 37° C., 5% CO2 cell incubator, and were cultured in RPMI1640 culture medium with 10% FBS. Androgen-independent human prostate cancer cells DU145, PC-3, from Shanghai Medicilon Ltd., were placed in a 37° C., 5% CO2 cell incubator, and were cultured in F12 culture medium with 10% FBS.
(§3) isothiocyanates or derivatives thereof and DNA-effecting or influencing anticancer drugs, kinase-inhibiting anticancer drugs or hormonal anticancer drugs for endocrine therapy were administered separately or in combination to cancer cells. […] After administration, the cells were cultured in the CO2 incubator for another 72 hrs, and afterwards, cell viability was tested by using CellTiter-Glo® reagent and luminescence detector. And IC50 values of each administration group were calculated.
(§4) CI value was calculated by the following formula: CI=(Am)50/(As)50+(Bm)50/(Bs)50, […]
as §1

DU145 cells = experiment: CellTiter-Glo cell viability, drugs alone or in combination, DU145 cells; details: Homo sapiens, DU-145, 72 h, read-out: (Bs)50, IC50 of drug B when used alone
Procedure: as §2, §3, §4, §1

## Cc1ccc(NC(=O)c2ccc(CN3CCN(C)CC3)cc2)cc1Nc1nccc(-c2cccnc2)n1 [imatinib]
[1]
  IC50: 22.5 µM

## CNC(=O)c1ccc(N2C(=S)N(c3ccc(C#N)c(C(F)(F)F)c3)C(=O)C2(C)C)cc1F [Enzalutamide, reference compound]
LNCaP cells
  IC50: 124 µM
DU145 cells
  IC50: 332 µM
